{"source": "the supplement of paper PMC8728848", "binders": {"B1": {"name": "Thrombomodulin Extracellular (Mus musculus), P15306 (protein)", "chain": "MLGIFFLGVLAPASLGLSALAKLQPTGSQCVEHECFALFQGPATFLDASQACQRLQGHLMTVRSSVAADVISLLLSQSSMDLGPWIGLQLPQGCDDPVHLGPLRGFQWVTGDNHTSYSRWARPNDQTAPLCGPLCVTVSTATEAAPGEPAWEEKPCETETQGFLCEFYFTASCRPLTVNTRDPEAAHISSTYNTPFGVSGADFQTLPVGSSAAVEPLGLELVCRAPPGTSEGHWAWEATGAWNCSVENGGCEYLCNRSTNEPRCLCPRDMDLQADGRSCARPVVQSCNELCEHFCVSNAEVPGSYSCMCETGYQLAADGHRCEDVDDCKQGPNPCPQLCVNTKGGFECFCYDGYELVDGECVELLDPCFGSNCEFQCQPVSPTDYRCICAPGFAPKPDEPHKCEMFCNETSCPADCDPNSPTVCECPEGFILDEGSVCTDIDECSQGECFTSECRNFPGSYECICGPDTALAGQISKDCDPIPVREDTKEEEGSGEPPVSPTPGSPTGPPSARPVHSGVLIGISIASLSLVVALLALLCHLRKKQGAARAELEYKCASSAKEVVLQHVRTDRTLQKF"}}, "test_in_all_cases": "glycan array binding signal (z-score within array); higher = stronger binding", "conditions_in_all_cases": "glycan notation: IUPAC condensed, linker removed", "key": {"[1]": {"target": "Fuc(a1-3)GlcNAc", "outline": "(§1)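 The Consortium for Functional Glycomics database supplied 3228 glycan arrays, of which those lacking an available protein sequence were dropped. The binding signal, a within-array Z-score, was averaged across arrays of the same protein sequence and across linkers. Negative scores can be read as non-binding.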"}, "[2]": {"target": "Fuc(a1-3)[Gal(b1-4)]Glc6S", "outline": "as §1"}, "[3]": {"target": "Fuc(a1-3)[Gal(b1-4)]GlcNAc", "outline": "as §1"}, "[4]": {"target": "Fuc(a1-3)[Gal(b1-4)]GlcNAc(b1-2)Man", "outline": "as §1"}, "[5]": {"target": "Fuc(a1-3)[Gal(b1-4)]GlcNAc(b1-2)Man(a1-3)[Fuc(a1-3)[Gal(b1-4)]GlcNAc(b1-2)Man(a1-6)]Man(b1-4)GlcNAc(b1-4)GlcNAc", "outline": "as §1"}, "[6]": {"target": "Fuc(a1-3)[Gal(b1-4)]GlcNAc(b1-2)Man(a1-3)[Fuc(a1-3)[Gal(b1-4)]GlcNAc(b1-2)Man(a1-6)]Man(b1-4)GlcNAc(b1-4)[Fuc(a1-6)]GlcNAc", "outline": "as §1"}, "[7]": {"target": "Fuc(a1-3)[Gal(b1-4)]GlcNAc(b1-3)Gal(b1-3)[Fuc(a1-4)]GlcNAc", "outline": "as §1"}, "[8]": {"target": "Fuc(a1-3)[Gal(b1-4)]GlcNAc(b1-3)Gal(b1-4)[Fuc(a1-3)]GlcNAc", "outline": "as §1"}, "[9]": {"target": "Fuc(a1-3)[Gal(b1-4)]GlcNAc(b1-3)Gal(b1-4)[Fuc(a1-3)]GlcNAc(b1-3)Gal(b1-4)[Fuc(a1-3)]GlcNAc", "outline": "as §1"}, "[10]": {"target": "Fuc(a1-3)[Gal(b1-4)]GlcNAc(b1-3)GalNAc", "outline": "as §1"}, "[11]": {"target": "Fuc(a1-3)[Gal(b1-4)]GlcNAc(b1-6)GalNAc", "outline": "as §1"}, "[12]": {"target": "Fuc(a1-3)[Gal(b1-4)]GlcNAc(b1-6)[Gal(b1-3)GlcNAc(b1-3)]Gal(b1-4)Glc", "outline": "as §1"}, "[13]": {"target": "Fuc(a1-3)[Gal(b1-4)]GlcNAc6S", "outline": "as §1"}, "[14]": {"target": "Fuc(a1-3)[Gal3S(b1-4)]Glc", "outline": "as §1"}, "[15]": {"target": "Fuc(a1-3)[Gal3S(b1-4)]GlcNAc", "outline": "as §1"}, "[16]": {"target": "Fuc(a1-3)[Gal3S(b1-4)]GlcNAc6S", "outline": "as §1"}, "[17]": {"target": "Fuc(a1-3)[GalNAc(b1-4)]GlcNAc", "outline": "as §1"}, "[18]": {"target": "Fuc(a1-3)[GalNAc(b1-4)]GlcNAc6S", "outline": "as §1"}, "[19]": {"target": "Fuc(a1-4)GlcNAc", "outline": "as §1"}, "[20]": {"target": "Fuc(b1-3)GlcNAc", "outline": "as §1"}, "[21]": {"target": "Gal(a1-2)Gal", "outline": "as §1"}, "[22]": {"target": "Gal(a1-3)Gal", "outline": "as §1"}, "[23]": {"target": "Gal(a1-3)Gal(b1-3)GlcNAc", "outline": "as §1"}, "[24]": {"target": "Gal(a1-3)Gal(b1-3)GlcNAc(b1-2)Man", "outline": "as §1"}, "[25]": {"target": "Gal(a1-3)Gal(b1-3)GlcNAc(b1-2)Man(a1-3)[Gal(a1-3)Gal(b1-3)GlcNAc(b1-2)Man(a1-6)]Man(b1-4)GlcNAc(b1-4)GlcNAc", "outline": "as §1"}, "[26]": {"target": "Gal(a1-3)Gal(b1-3)GlcNAc(b1-3)GalNAc", "outline": "as §1"}, "[27]": {"target": "Gal(a1-3)Gal(b1-3)GlcNAc(b1-6)GalNAc", "outline": "as §1"}, "[28]": {"target": "Gal(a1-3)Gal(b1-3)[Fuc(a1-4)]GlcNAc(b1-2)Man(a1-3)[Gal(a1-3)Gal(b1-3)[Fuc(a1-4)]GlcNAc(b1-2)Man(a1-6)]Man(b1-4)GlcNAc(b1-4)GlcNAc", "outline": "as §1"}, "[29]": {"target": "Gal(a1-3)Gal(b1-4)Glc", "outline": "as §1"}, "[30]": {"target": "Gal(a1-3)Gal(b1-4)GlcNAc", "outline": "as §1"}}, "note": "Some of the results follow."}
{"binder": "B1", "values": [{"measurement": "glycan array binding signal (z-score)", "setting": "[1]", "result": -0.402}, {"measurement": "glycan array binding signal (z-score)", "setting": "[2]", "result": 0.899}, {"measurement": "glycan array binding signal (z-score)", "setting": "[3]", "result": -0.624}, {"measurement": "glycan array binding signal (z-score)", "setting": "[4]", "result": -2.17}, {"measurement": "glycan array binding signal (z-score)", "setting": "[5]", "result": -0.361}, {"measurement": "glycan array binding signal (z-score)", "setting": "[6]", "result": 0.185}, {"measurement": "glycan array binding signal (z-score)", "setting": "[7]", "result": -0.513}, {"measurement": "glycan array binding signal (z-score)", "setting": "[8]", "result": -0.843}, {"measurement": "glycan array binding signal (z-score)", "setting": "[9]", "result": -1.64}, {"measurement": "glycan array binding signal (z-score)", "setting": "[10]", "result": -0.136}, {"measurement": "glycan array binding signal (z-score)", "setting": "[11]", "result": 0.626}, {"measurement": "glycan array binding signal (z-score)", "setting": "[12]", "result": -0.049}, {"measurement": "glycan array binding signal (z-score)", "setting": "[13]", "result": -1.05}, {"measurement": "glycan array binding signal (z-score)", "setting": "[14]", "result": -0.681}, {"measurement": "glycan array binding signal (z-score)", "setting": "[15]", "result": 0.004}, {"measurement": "glycan array binding signal (z-score)", "setting": "[16]", "result": -0.475}, {"measurement": "glycan array binding signal (z-score)", "setting": "[17]", "result": -0.476}, {"measurement": "glycan array binding signal (z-score)", "setting": "[18]", "result": 0.573}, {"measurement": "glycan array binding signal (z-score)", "setting": "[19]", "result": -0.498}, {"measurement": "glycan array binding signal (z-score)", "setting": "[20]", "result": 0.002}, {"measurement": "glycan array binding signal (z-score)", "setting": "[21]", "result": -1.35}, {"measurement": "glycan array binding signal (z-score)", "setting": "[22]", "result": -0.771}, {"measurement": "glycan array binding signal (z-score)", "setting": "[23]", "result": -0.434}, {"measurement": "glycan array binding signal (z-score)", "setting": "[24]", "result": 0.525}, {"measurement": "glycan array binding signal (z-score)", "setting": "[25]", "result": 0.235}, {"measurement": "glycan array binding signal (z-score)", "setting": "[26]", "result": 1.3}, {"measurement": "glycan array binding signal (z-score)", "setting": "[27]", "result": 0.877}, {"measurement": "glycan array binding signal (z-score)", "setting": "[28]", "result": 1.48}, {"measurement": "glycan array binding signal (z-score)", "setting": "[29]", "result": -0.459}, {"measurement": "glycan array binding signal (z-score)", "setting": "[30]", "result": -0.81}]}
